From PMC9481589
These are yes or no findings as the source states them, for the method shown. Binding seen in cells or lysates may run through a third protein. Binding can be weak; no strength is given.

The chains behind the UniProt entries cited, without tags or fusion partners. Where a name states a change or a piece, a line headed by the entry shows the natural chain unless it says otherwise.
UniProt Q57ZF5: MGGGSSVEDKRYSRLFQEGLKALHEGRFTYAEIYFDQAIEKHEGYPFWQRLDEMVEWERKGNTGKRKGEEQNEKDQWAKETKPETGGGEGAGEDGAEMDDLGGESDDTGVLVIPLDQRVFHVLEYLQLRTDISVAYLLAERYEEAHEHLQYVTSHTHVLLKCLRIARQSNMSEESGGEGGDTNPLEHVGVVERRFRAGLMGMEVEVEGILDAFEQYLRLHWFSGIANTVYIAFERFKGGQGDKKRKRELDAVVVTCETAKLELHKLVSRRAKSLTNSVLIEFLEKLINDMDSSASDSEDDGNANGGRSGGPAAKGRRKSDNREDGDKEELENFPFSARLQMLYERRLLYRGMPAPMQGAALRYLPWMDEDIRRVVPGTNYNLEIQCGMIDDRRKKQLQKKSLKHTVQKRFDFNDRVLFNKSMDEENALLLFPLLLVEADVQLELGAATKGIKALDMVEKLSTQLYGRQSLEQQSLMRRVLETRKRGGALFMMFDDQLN

B1: ESAG4 (expression site-associated gene 4 adenylate cyclase), endogenous (enzyme, UniProt Q26721 1-1235)
chain: MNMLHLSDRNASLAPSGGEHSLPTGGAVCRDAMDILPVILRAPVALLLLLVVLPQLSVGAEANVTVKVLSATWNWYMPRKYVTAINAGFNASLKSRNWTVAGSVNVQVVYPSNLDLMPEDFIKKQLELETDQNKIVIVYGPLGDKSVMHSIPHLMNHRVVAFGLITGSTFIRQWNPYLYFLRADPAAETLVLIRYSLCQLRVLRLGFMYLQGVHYGDEEYALTVNVMSRMGYELHGVFTVMSPDGKPAPDAEFKEVFERFATALPQAIIVFGAPVDDTAKFLMMMAVDERIARSYILSPSSVQLSLIEMWQLALEAAGASFAPGQLLFTGTNPLAKDSQYTAIKRFQEVMSEYLKAHVGETNITEADYFLTHDLEGELMVYGWISGEVLSQALSNLEWLKDRATFVRSLYDQRRYVINDIVIGDYGGTCEGDAAKHGATCECNQGSKAVYVKEMLENGQKTSVRSGFTVLKASLCYTDSSELHGPLDGLVVFMKDDDIASKAAALWQKGTSHLVGKGDLGYSDRFFLHAFNTTIAEAANDLRRDQGERIVTAVFGPVTEAMLDTPNITFIDPLELKPRLNKFRRNVIHLSPTLEQQLYVLSSYLAGAGVGNVDAVICSNEADGIADFLRSSLTEFAVSLRSAVIREDGEDVGKYLPMSGTVFVIGLSVPDVKEIARKLEERNDLRVIVLFGEFSFLYDLFATALNNTAGAARLVFATSLPHWGDTETSSKTAQLFHDVEKDSRLWTPLSVLAFATGRLMRVILLHVEEMSPETLVNFFYTDSSIVSDDMRYGVFDDTKCVDTANKLSKNGCASNYGATQISVWSMARALNASIPPLTNPMTPSMTFRNSNAGRISGASLVGIIIGGALALFLVVALGVVPYFFLRNTVITICTKDDRPVTLIFTDIESSTALWAAHPEVMPDAVATHHRLIRTLISKYECYEVKTVGDSFMIASKSPFAAVQLAQELQLCFLHHDWGTNAIDESYQQFEQQRAEDDSDYTPPTARLDPKVYSRLWNGLRVRVGIHTGLCDIRRDEVTKGYDYYGRTSNMAARTESVANGGQVLMTHAAYMSLSAEERQQIDVTALGDVPLRGVPKPVEMYRLNAVPGRTFSVLRLELELLNDDEDQTTTSCSDHSSSRTDLSVAAQTIAASLQSLLGTFTPAQRQKALIPFCERWRVPLPQKVGNVWDDDGCQEVVRRVAAKVGRVMDFGTRKPSSSVTSWKGVEVSSQVEERLL

Legend:
[1] = target: native CARP3 (cyclic AMP response protein 3) (Trypanosoma brucei (endogenous in bloodstream and procyclic forms)) (UniProt Q57ZF5); test: co-IP; CARP3 pull-downs in procyclic ACP-mNG trypanosome lines
[2] = target: CARP3-YFP (cyclic AMP response protein 3 fused to YFP) (Trypanosoma brucei) (UniProt Q57ZF5); test: co-IP; GFP-trap immunoprecipitation of CARP3-YFP from bloodstream form lysate; Western blot with antibody detection of ESAG4 and CARP3

| Molecule | binding [1] | binding [2] |
| --- | --- | --- |
| ACP4-mNG (adenylate cyclase ACP4 fused to mNeonGreen) (from UniProt Q388U2) (enzyme) | binds |  |
| ACP5-mNG (adenylate cyclase ACP5 fused to mNeonGreen) (from UniProt Q382G3) (enzyme) | binds |  |
| B1 |  | binds |
